The target in this assay is T1, 3xFLAG-tagged APIP expressed in SNU-16 cells (human) (UniProt Q96GX9).
T1 sequence: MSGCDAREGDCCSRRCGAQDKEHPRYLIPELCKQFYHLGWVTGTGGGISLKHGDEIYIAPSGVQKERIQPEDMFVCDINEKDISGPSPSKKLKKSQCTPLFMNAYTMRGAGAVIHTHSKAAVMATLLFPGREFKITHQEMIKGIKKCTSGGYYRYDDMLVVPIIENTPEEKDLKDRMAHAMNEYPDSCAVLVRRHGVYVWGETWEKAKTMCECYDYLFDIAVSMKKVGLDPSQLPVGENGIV
Description: affinity purification with mass spectrometry; SNU-16 cells expressing 3xFLAG-tagged APIP; FLAG M2 affinity gel; bound proteins resolved by SDS-PAGE, LC-MS/MS.

Chains of the proteins cited; added tags and fusions are not shown. Residues count along the entry.
UniProt P21860, residues 20-1342: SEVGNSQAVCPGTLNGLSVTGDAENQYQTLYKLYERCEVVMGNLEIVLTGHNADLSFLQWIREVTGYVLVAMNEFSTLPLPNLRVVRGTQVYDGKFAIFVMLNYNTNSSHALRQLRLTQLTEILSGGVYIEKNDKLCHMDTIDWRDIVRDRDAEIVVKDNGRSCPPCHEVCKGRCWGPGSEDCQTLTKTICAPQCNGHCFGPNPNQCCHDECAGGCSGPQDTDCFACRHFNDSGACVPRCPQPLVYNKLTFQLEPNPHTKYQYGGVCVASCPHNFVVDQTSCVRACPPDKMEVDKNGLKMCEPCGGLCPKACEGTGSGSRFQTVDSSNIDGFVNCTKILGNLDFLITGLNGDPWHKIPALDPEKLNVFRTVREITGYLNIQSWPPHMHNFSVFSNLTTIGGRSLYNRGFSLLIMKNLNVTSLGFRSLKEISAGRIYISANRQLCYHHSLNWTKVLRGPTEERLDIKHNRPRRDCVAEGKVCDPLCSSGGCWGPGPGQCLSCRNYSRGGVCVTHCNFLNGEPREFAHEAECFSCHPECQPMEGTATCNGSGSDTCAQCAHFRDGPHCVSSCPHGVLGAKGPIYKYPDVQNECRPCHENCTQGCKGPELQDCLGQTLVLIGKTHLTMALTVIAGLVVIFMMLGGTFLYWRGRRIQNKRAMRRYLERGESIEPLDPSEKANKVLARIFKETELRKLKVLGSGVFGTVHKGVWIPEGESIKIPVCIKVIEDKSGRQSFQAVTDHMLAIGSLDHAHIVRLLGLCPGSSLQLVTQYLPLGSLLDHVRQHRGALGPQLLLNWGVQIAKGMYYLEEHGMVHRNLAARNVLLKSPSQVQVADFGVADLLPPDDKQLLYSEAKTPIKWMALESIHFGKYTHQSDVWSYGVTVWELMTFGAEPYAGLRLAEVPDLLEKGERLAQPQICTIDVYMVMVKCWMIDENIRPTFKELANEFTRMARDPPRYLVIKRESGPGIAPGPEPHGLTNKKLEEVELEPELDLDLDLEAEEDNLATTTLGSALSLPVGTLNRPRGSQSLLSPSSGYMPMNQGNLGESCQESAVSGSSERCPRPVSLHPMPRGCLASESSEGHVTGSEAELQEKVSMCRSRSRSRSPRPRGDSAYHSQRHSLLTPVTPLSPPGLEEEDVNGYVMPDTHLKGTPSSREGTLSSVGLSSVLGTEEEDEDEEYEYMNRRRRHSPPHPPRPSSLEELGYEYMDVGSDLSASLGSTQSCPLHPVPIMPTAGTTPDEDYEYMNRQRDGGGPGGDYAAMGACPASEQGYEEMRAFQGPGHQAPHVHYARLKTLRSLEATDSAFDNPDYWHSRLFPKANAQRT

Results are given in words; binding and its absence hold for the method and conditions named. In cells and extracts the contact can be indirect. These calls come from enrichment with a bait or labelling near it, and not all partners need be listed. Where a sequence is shown, tags or fusion partners need not be part of it.

As to “ERBB3 (HER3), endogenous in SNU-16 cells (from UniProt P21860 20-1342) (receptor)”, the binding entry is given as “binds”.

The record behind these values is paper PMC5008309.
